The values that follow come from article doi:10.1101/2025.04.28.651057.

By UniProt entry, the sequences of proteins in these tests, tags left out.
UniProt Q7Z5G4: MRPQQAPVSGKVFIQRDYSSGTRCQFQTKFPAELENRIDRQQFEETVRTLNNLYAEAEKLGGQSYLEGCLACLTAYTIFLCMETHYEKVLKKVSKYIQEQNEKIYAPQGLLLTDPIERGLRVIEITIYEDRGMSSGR
UniProt Q9ULC8: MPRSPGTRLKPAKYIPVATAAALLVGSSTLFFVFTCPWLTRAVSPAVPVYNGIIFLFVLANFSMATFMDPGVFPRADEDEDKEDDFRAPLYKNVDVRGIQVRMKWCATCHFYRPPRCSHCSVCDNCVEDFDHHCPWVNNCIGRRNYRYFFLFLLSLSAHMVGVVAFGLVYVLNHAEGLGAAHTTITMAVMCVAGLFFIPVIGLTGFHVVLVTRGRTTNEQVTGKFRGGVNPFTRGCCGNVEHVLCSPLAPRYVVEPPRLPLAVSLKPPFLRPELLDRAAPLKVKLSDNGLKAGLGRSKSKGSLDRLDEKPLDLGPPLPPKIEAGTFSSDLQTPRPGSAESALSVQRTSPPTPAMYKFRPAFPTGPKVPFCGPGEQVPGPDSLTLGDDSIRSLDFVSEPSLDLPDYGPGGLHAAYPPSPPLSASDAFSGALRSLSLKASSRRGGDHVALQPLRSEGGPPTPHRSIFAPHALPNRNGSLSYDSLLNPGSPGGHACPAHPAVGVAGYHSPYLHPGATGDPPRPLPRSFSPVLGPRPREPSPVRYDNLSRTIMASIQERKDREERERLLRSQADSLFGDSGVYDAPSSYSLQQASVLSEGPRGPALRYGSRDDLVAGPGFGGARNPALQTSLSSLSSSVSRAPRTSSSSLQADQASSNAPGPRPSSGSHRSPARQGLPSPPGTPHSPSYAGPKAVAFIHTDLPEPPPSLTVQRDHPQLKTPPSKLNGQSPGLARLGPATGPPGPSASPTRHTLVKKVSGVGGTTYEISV
UniProt Q9Y397: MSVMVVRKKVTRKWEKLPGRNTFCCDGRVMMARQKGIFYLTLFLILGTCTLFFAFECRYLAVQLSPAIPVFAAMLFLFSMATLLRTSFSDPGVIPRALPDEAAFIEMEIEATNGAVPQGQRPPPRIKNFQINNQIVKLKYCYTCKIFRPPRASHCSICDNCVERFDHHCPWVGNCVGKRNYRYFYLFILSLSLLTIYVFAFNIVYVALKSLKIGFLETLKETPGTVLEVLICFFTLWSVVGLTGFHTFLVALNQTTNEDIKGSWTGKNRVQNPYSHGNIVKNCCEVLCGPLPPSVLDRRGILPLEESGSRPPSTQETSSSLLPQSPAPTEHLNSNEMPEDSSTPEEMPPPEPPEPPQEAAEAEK

What all share (assay): co-IP
Assay [1] concerns the target T1, GOLGA7B^2CS (Cys78Ser, Cys81Ser) (human) (UniProt Q2TAP0).
T1 sequence: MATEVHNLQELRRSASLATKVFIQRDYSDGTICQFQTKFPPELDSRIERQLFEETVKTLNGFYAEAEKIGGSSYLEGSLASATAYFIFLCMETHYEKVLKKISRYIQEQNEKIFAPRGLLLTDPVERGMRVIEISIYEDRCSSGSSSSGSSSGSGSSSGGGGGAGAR

The target in assay [2] is T2, 3xFLAG-GOLGA7B (human) (human) (UniProt Q2TAP0).
T2 sequence: T1 sequence with S78C, S81C

The target of assay [3] is 3xFLAG-GOLGA7 (human) (human) (UniProt Q7Z5G4).

Changes are numbered by the printed parent chain. No constants are given. Whether binding was seen depends on the method and setting. Binding seen in cells or lysates may run through a third protein. Some results given as binding are weak or reduced against the parent protein; the word gives no strength. For some of these results: Where a sequence is shown, tags or fusion partners need not be part of it.

As to “endogenous human ZDHHC8 (from UniProt Q9ULC8 1-765) (enzyme)”, the binding result in assay [1] is on record as “no binding”; in assay [2], “binds”.
As to “endogenous human ZDHHC9 (from UniProt Q9Y397 1-364) (enzyme)”, the values for the binding result in assay [2] and in assay [3] were “no binding” and “binds”, respectively.
